# From article PMC7819943, “Rice protein-binding microarrays: a tool to detect cis-acting elements near promoter regions in rice”
# Amino acid sequences for entries named in this document (tags omitted).
# UniProt Q0JBA9, entry or part of it: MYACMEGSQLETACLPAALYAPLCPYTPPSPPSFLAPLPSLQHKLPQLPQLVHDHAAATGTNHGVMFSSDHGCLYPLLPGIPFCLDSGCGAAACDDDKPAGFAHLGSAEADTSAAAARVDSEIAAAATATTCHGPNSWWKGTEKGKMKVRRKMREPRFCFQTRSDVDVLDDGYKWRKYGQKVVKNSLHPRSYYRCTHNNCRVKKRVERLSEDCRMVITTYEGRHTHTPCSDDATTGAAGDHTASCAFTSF
# The list shows a part of the results.
# Target: OsWRKY34 (Oryza sativa, UniProt Q0JBA9 1-250)
# Assay: protein-binding microarray (RPBM); PBS, 2% BSA, 51.3 ng/ul salmon testes DNA, 50 uM zinc acetate, 200 nM TF, 25 C, 1 h; high values mean tight binding
# Settings: protein: recombinant; tags: N-terminal polyhistidine and DsRed monomer fusion (pET32a); label: CyDye5-dUTP incorporated in the synthesized complementary strand; 3' TTTTT single-stranded linker to array surface; dsDNA, one strand shown
# How it was run: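 Binding signal here means per-feature fluorescence intensity in arbitrary units. The values were read on an Axon 4000B scanner after a custom Agilent array, double-stranded by primer extension with Cy5-dUTP, was incubated with 200 nM protein at 25 °C for 1 h in PBS with 2% BSA, salmon testes DNA and 50 µM zinc acetate, then washed. The proteins were transcription factors with an N-terminal polyhistidine tag and DsRed, expressed in E. coli BL21-CodonPlus and purified on Ni–NTA.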
row,Sequence,binding signal
1,AAGCTTGGATTAGGTTGGTTGTGCGATGTGTATCTAAAGACGGAGTCACCTAGTGCAG,10700 fluorescence intensity (a.u.)
2,AGACCTAATTACCACTACAGCCGCGACCTCGATTTTGTTTCGGAGTCACCTAGTGCAG,8260 fluorescence intensity (a.u.)
3,GATTAGGGTTGTTGCCGGGGTTTGTTTGGTGTTGCGGCGGCGGAGTCACCTAGTGCAG,8510 fluorescence intensity (a.u.)
4,CAATCTTGCCTTTTTCTTCTTGCTCATCGGTGGCCAATGCCGGAGTCACCTAGTGCAG,9990 fluorescence intensity (a.u.)
5,CGCACGGCCCCGTACCCGCGACCACCACCACCCGCCGCCGCGGAGTCACCTAGTGCAG,9300 fluorescence intensity (a.u.)
6,TTAATTGCTATGTTTTGACCAGTCAACGCATAGGTCGTTTCGGAGTCACCTAGTGCAG,9120 fluorescence intensity (a.u.)
7,GACTATACTACTTGAACTGTTGATTTATGCCATCATAATTCGGAGTCACCTAGTGCAG,9820 fluorescence intensity (a.u.)
8,GAAATTTTTTGTTTCCATCCTTGGCTTGACTTTTAGAAGACGGAGTCACCTAGTGCAG,9730 fluorescence intensity (a.u.)
9,ACACCCTATTGTCAGCATCGTGAGATCATTATCTTTCTAACGGAGTCACCTAGTGCAG,11600 fluorescence intensity (a.u.)
10,TGCACTGTTTTTAGTGGATTTCTATGCTTGCTTTGTCCTCCGGAGTCACCTAGTGCAG,8520 fluorescence intensity (a.u.)
11,TTTTTTTCTCTTGTCCTTTCTCCACCGTTCTTCTCGTTCACGGAGTCACCTAGTGCAG,11000 fluorescence intensity (a.u.)
12,GACCGGATTATTTTCACCTGCATGAGATCTTACGCCTACCCGGAGTCACCTAGTGCAG,9390 fluorescence intensity (a.u.)
13,TCTCTTATCTTCTTTTTCGCTTTTCTTCTTCTCTTTTCTCCGGAGTCACCTAGTGCAG,9800 fluorescence intensity (a.u.)
14,AGTGAGGCGACAATGGCTCGTGGAGGGTGGGAGCAGTGGACGGAGTCACCTAGTGCAG,9270 fluorescence intensity (a.u.)
15,AGATTGCTTTTCTTACAAGGACGACGCTAACAATAACATCCGGAGTCACCTAGTGCAG,9110 fluorescence intensity (a.u.)
16,ACCCTCTCGCTTTTATGCTTACGCTTTTCAAACGGCTAAACGGAGTCACCTAGTGCAG,9210 fluorescence intensity (a.u.)
17,CTTAAAGGGTGGTACTTGGGTGGGAGTGCGTGGTTAGCTACGGAGTCACCTAGTGCAG,8430 fluorescence intensity (a.u.)
18,GAATTACGCTTTGGGCCACATTTTATTACCTATATTTCACCGGAGTCACCTAGTGCAG,8230 fluorescence intensity (a.u.)
19,GCCATATTATTTTTCCTTTGTCCTAATTAATGTTAGAAATCGGAGTCACCTAGTGCAG,9440 fluorescence intensity (a.u.)
20,TACTTGCTTTGCTTTACTCTCTCATCAACTTTTTTTTTTCCGGAGTCACCTAGTGCAG,8470 fluorescence intensity (a.u.)
21,GTTTTATCTGAAAAAAGCAAACAGAGGCTCTTCCAGTCATCGGAGTCACCTAGTGCAG,8020 fluorescence intensity (a.u.)

# An excerpt of these results, with tabs.
row	Sequence	binding signal
19	GCCATATTATTTTTCCTTTGTCCTAATTAATGTTAGAAATCGGAGTCACCTAGTGCAG	9440 fluorescence intensity (a.u.)
20	TACTTGCTTTGCTTTACTCTCTCATCAACTTTTTTTTTTCCGGAGTCACCTAGTGCAG	8470 fluorescence intensity (a.u.)

# (list continues)

row,Sequence,binding signal
1,CCATCTGACCCGTGCGTATCCACATGTGCCTACATATTTACGGAGTCACCTAGTGCAG,11100 fluorescence intensity (a.u.)
2,CTCCTCCACTCCTCCTCTCTCCTCCGCCGCCGCGGCCATGCGGAGTCACCTAGTGCAG,8110 fluorescence intensity (a.u.)
3,CTTCGTGTTCGTCGTGGTCTCTTGTTTCTTCTTCTTCTTCCGGAGTCACCTAGTGCAG,22000 fluorescence intensity (a.u.)
4,AGCACCACACTTGTACCTTACATGGCTCATGTGTAATTGACGGAGTCACCTAGTGCAG,10300 fluorescence intensity (a.u.)
5,GAAACGTGTCACGCCTCTCCATCCACCTGTCGCATCTACCCGGAGTCACCTAGTGCAG,8150 fluorescence intensity (a.u.)
6,CCATTTGGTCTTTCTAACTCTCTCTATATATATAGTCATACGGAGTCACCTAGTGCAG,9880 fluorescence intensity (a.u.)
7,TCCTACCCGGGCCCACATGTCGGAGCTGTCAAACGGCTCACGGAGTCACCTAGTGCAG,9670 fluorescence intensity (a.u.)
8,TCTAAATGGACGTGATGCCGTTTTTATGAACAGATTAAGCCGGAGTCACCTAGTGCAG,14600 fluorescence intensity (a.u.)
9,TACATTTTACGTACAGTTTGTATTAGGTCTGACATATTCTCGGAGTCACCTAGTGCAG,8730 fluorescence intensity (a.u.)
10,GGCATCCCACCACCAGCTGCTACAGGCTGCATCACTCGATCGGAGTCACCTAGTGCAG,8750 fluorescence intensity (a.u.)
11,TCGTGGTTTTAGTCTTGGTCCATGCCAGATTGCGATTGAACGGAGTCACCTAGTGCAG,8050 fluorescence intensity (a.u.)
12,TATTTTTCAGATTGTATTTCTGTTTGGACTCTTTTTTTTCCGGAGTCACCTAGTGCAG,11900 fluorescence intensity (a.u.)
13,GGTTGGTTTCTTTCGTTGGATTGTTTCGAGCCAGGGTTTCCGGAGTCACCTAGTGCAG,16900 fluorescence intensity (a.u.)
14,TCCGTTTGTCTTCTACCTCCCGACGAAGCCATTGTCAATCCGGAGTCACCTAGTGCAG,9920 fluorescence intensity (a.u.)
15,TTTGATTTCATTGCATCTAGGTGTTGAAAAACCTTGTCCGCGGAGTCACCTAGTGCAG,8460 fluorescence intensity (a.u.)
16,TCCTTTCGTTTTTCCTCCTGCAGTGGCAGATACTGTAATTCGGAGTCACCTAGTGCAG,8120 fluorescence intensity (a.u.)
17,ACTGGGGAGAGGCTAGCTAGGGGAATCCATGCACCAACTTCGGAGTCACCTAGTGCAG,8090 fluorescence intensity (a.u.)
18,GCGACGACGCCACGTCATCTCACGCTCAAGCAAATCGCGCCGGAGTCACCTAGTGCAG,8250 fluorescence intensity (a.u.)
19,AATCACTCCGCGTCATCTTGTTGTCTACTCCATCATATGCCGGAGTCACCTAGTGCAG,9900 fluorescence intensity (a.u.)
20,ACTTCTCTTTCCTGTAGACAGTCTGTGATAATTTTGTTCTCGGAGTCACCTAGTGCAG,14300 fluorescence intensity (a.u.)
21,TCGCCACCAACTCCGAGCGACAACCGGTACTTTCTCCTTCCGGAGTCACCTAGTGCAG,8330 fluorescence intensity (a.u.)
